Reference: paper PMC11095213
These are yes or no findings as the source states them, for the method shown. In cells and extracts the contact can be indirect. Some entries that bind do so weakly or less than the wild type.

Sequences of proteins named here, by UniProt entry; tags and fusion partners are left off.
UniProt P63085: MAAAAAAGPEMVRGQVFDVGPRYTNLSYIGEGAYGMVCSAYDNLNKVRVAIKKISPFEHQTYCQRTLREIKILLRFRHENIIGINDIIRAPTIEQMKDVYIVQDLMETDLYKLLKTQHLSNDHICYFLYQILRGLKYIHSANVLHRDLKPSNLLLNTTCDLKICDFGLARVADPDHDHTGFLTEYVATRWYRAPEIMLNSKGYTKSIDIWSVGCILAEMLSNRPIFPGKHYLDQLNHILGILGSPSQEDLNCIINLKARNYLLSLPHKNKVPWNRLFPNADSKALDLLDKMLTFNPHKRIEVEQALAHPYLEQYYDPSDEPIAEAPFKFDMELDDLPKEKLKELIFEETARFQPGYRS
UniProt Q63844: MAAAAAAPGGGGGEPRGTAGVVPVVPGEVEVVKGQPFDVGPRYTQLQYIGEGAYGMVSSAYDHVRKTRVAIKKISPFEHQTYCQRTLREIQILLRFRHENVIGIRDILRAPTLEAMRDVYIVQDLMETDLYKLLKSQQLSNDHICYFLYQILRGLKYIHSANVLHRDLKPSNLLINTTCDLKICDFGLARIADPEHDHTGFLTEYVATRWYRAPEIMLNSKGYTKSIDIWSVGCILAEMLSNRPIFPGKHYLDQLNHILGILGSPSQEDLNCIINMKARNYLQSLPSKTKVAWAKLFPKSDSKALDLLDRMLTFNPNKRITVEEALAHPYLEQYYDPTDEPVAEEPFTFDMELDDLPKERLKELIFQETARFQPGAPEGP

Legend:
[1] = target: ERK2 (of ERK1/2), endogenous in OT-I CD8+ CTLs (mouse (endogenous in OT-I CD8+ CTLs)) (UniProt P63085); experiment: co-IP; endogenous proteins in OT-I CTL lysate (RIPA lysis buffer), precipitated with an ERK1/2 antibody and protein G-coupled sepharose beads, immunoblot
[2] = target: ERK1 (of ERK1/2), endogenous in OT-I CD8+ CTLs (mouse (endogenous in OT-I CD8+ CTLs)) (UniProt Q63844); experiment: as above

B1: endogenous ULK1 in OT-I CD8+ CTLs (protein, UniProt O70405 1-1051)
chain: MEPGRGGVETVGKFEFSRKDLIGHGAFAVVFKGRHREKHDLEVAVKCINKKNLAKSQTLLGKEIKILKELKHENIVALYDFQEMANSVYLVMEYCNGGDLADYLHTMRTLSEDTVRLFLQQIAGAMRLLHSKGIIHRDLKPQNILLSNPGGRRANPSNIRVKIADFGFARYLQSNMMAATLCGSPMYMAPEVIMSQHYDGKADLWSIGTIVYQCLTGKAPFQASSPQDLRLFYEKNKTLVPAIPRETSAPLRQLLLALLQRNHKDRMDFDEFFHHPFLDASTPIKKSPPVPVPSYPSSGSGSSSSSSSASHLASPPSLGEMPQLQKTLTSPADAAGFLQGSRDSGGSSKDSCDTDDFVMVPAQFPGDLVAEAASAKPPPDSLLCSGSSLVASAGLESHGRTPSPSPTCSSSPSPSGRPGPFSSNRYGASVPIPVPTQVHNYQRIEQNLQSPTQQQTARSSAIRRSGSTTPLGFGRASPSPPSHTDGAMLARKLSLGGGRPYTPSPQVGTIPERPSWSRVPSPQGADVRVGRSPRPGSSVPEHSPRTTGLGCRLHSAPNLSDFHVVRPKLPKPPTDPLGATFSPPQTSAPQPCPGLQSCRPLRGSPKLPDFLQRSPLPPILGSPTKAGPSFDFPKTPSSQNLLTLLARQGVVMTPPRNRTLPDLSEASPFHGQQLGSGLRPAEDTRGPFGRSFSTSRITDLLLKAAFGTQASDSGSTDSLQEKPMEIAPSAGFGGTLHPGARGGGASSPAPVVFTVGSPPSGATPPQSTRTRMFSVGSSSSLGSTGSSSARHLVPGACGEAPELSAPGHCCSLADPLAANLEGAVTFEAPDLPEETLMEQEHTETLHSLRFTLAFAQQVLEIAALKGSASEAAGGPEYQLQESVVADQISQLSREWGFAEQLVLYLKVAELLSSGLQTAIDQIRAGKLCLSSTVKQVVRRLNELYKASVVSCQGLSLRLQRFFLDKQRLLDGIHGVTAERLILSHAVQMVQSAALDEMFQHREGCVPRYHKALLLLEGLQHTLTDQADIENIAKCKLCIERRLSALLSGVYA
Q: Which binding [1] does the source give for B1 here?
A: Its binding is “binds”.

Q: What about the binding [2] of the same binder?
A: Its binding is “binds”.
